Results published in PubChem BioAssay AID1508600 (Functional Genomics Laboratory (NCATS/FGL), 2020).
About 3,700 (7%) of roughly 53,000 sequences were called active.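 How the source made its calls: active means gene knockdowns whose robust z-score for IL-1 alpha signal is at least 2 or at most -2, so actives lie on both sides; inactive means the rest.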 The list shows a part of the results.

Assay: Components of the Cytosolic LPS Sensing Pathway: Gene Identification via Genome-wide siRNA Screen;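 further: robust z of the log signal after scaling to non-targeting control siRNA wells of the plate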
Settings: RAW264.7 macrophages, IL-1a HTRF, actives lie on both sides, screened at 100 nM (by protocol), cells primed 5 h with Pam3CSK4 first
How it was run: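 Mouse macrophage line RAW264.7 is transfected with siRNA (100 nM final), grown 48h, primed with TLR ligand Pam3CSK4 5 h and given intracellular LipidA 24 h. IL-1a in supernatant is read by HTRF and viability by luminescence.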
In the case of GGUAUUCACACUGAAGCCCTT against H2-DMa, the z-score is reported as inactive: 0.108.
For GGAUGAGAAAUACUUUCGGTT against C8a, the z-score was inactive: 0.126.
With ACCUUCAACACCAGUUUGGTT against Olfr1393 the z-score was inactive: -0.654.
For GGAUAGAUGCAACAAGUUUTT against Zc3hav1l, the z-score was inactive: 1.75.
With GGCCCAGAACAGAAAACUCTT against Clec1a the z-score was inactive: -0.582.
For CCAUCAAGGGAGGUCCUUUTT against Renbp, the z-score was inactive: -0.291.
For GGCCACCUAUAUGCUGAAGTT against Ngef, the z-score was inactive: 0.792.
For GGACCAAUAAAUCCUGAUATT against Gzmm, the z-score was inactive: -0.108.
In the case of GGAUAUACCAACCUACAAATT against Plxnc1, the z-score is reported as inactive: 1.03.
In the case of GGAGAAGUUUGAAGAGAUGTT against Cct5, the z-score is reported as active: -2.24.
With GCUCCCACGAUAUAGCCACTT against Gm839 the z-score was inactive: 0.87.
With GCCUGGAGAAGUGAACUCUTT against Tll1 the z-score was inactive: -1.65.
For GGAAAUAUGUGUCCGCACUTT against Mfap2, the z-score was inactive: -0.0699.
For GGUAGAACAGUGCUUAAAGTT against Nepro, the z-score was inactive: -1.48.
With GCUCUCUUAUUGUGAACCUTT against Olfr1168 the z-score was inactive: 0.69.
With CGCAUUCUACGCCUUUAUGTT against Wbp11 the z-score was inactive: 0.0351.
For GGAAUCUCAGCCUUGAAAGTT against Naxd, the z-score was inactive: 0.746.
With CCGUGUUCUUAUGGGUUUUTT against Fgf13 the z-score was inactive: 1.3.
In the case of CCACCAUCGGUUGUUAGUUTT against Actg1, the z-score is reported as inactive: 1.81.
With CCUUAAUGAUGAUCCUAUATT against Neu3 the z-score was inactive: 1.66.
For GAUAGGGAAUGCCAUACCGTT against Zfp771, the z-score was inactive: 0.343.
For CCUGACUCCGAUUUUGAGUTT against Elp3, the z-score was inactive: -1.12.
With GCAGGUAUGUACCGUUUCUTT against Etos1 the z-score was inactive: 0.585.
For GCUUGAAUCUAGCAGCUUUTT against Dvl1, the z-score was inactive: 0.404.
In the case of GGCCACGACUCUUUGUUUATT against Ush1g, the z-score is reported as inactive: -0.115.
With GGAUUCUGUCUCCAGAUAUTT against Cabcoco1 the z-score was inactive: 1.3.
For CCUCUUGGUCGAAUUAUUATT against Hmgxb3, the z-score was inactive: 1.08.
In the case of GGAGAAAAUACAACUGUGATT against Ctrc, the z-score is reported as inactive: -1.05.
For CCCGGAGUGGAAUUUACAGTT against Llgl1, the z-score was inactive: 1.35.
With GGAACUAAUGAAACAGCUGTT against Abat the z-score was inactive: -1.15.
With GGGCAUCUUUGCAUUCAAGTT against Frs3 the z-score was inactive: 1.23.
With “GGUGGAUGCCUUGAAUAUGTT against 1700029P11Rik” the z-score was active: -2.25.
In the case of GCAAAUUUACCUCAGUGCUTT against Olfr53, the z-score is reported as inactive: 0.613.
With GCAUGAUAGGCCUGUUAUUTT against Gm4922 the z-score was inactive: 1.07.
In the case of GGCCUGUGGUUAUGCUGUGTT against Cyp2b10, the z-score is reported as inactive: -0.716.
For GCAACAGGUUAGCGAAACCTT against Hrk, the z-score was inactive: -0.0754.
With GGAGUAUCUUGAAAUGCAUTT against Gsap the z-score was inactive: -1.02.
In the case of CGAGUGAGUAUUUUCUCUUTT against Gdf10, the z-score is reported as inactive: -0.407.
For GGAUGAAGAACUGAAAUCUTT against Unc13b, the z-score was inactive: 0.167.
With GCUAUAGUGCCAAAUUUGCTT against Alad the z-score was inactive: 0.0389.
With GGAAUAUGAGAGAAGCUCATT against Dpf2 the z-score was inactive: -0.861.
For “GGUAUAAGGUCAUAGAAUUTT against E230016K23Rik”, the z-score was inactive: 0.429.
For GCAACUAUCUGCUUAUUUATT against Tmem184a, the z-score was inactive: 0.428.
For GCUGCUACUCUGGAGAAGCTT against Fcrlb, the z-score was inactive: -0.225.
In the case of GCCCUCAAAUGGCUUGAACTT against Lysmd4, the z-score is reported as inactive: 1.06.
For CCGGAUUGUGAUCUGUUACTT against Bckdha, the z-score was inactive: 0.728.
With GCUUUAGUUGCUUUCCCUGTT against Gm5409 the z-score was inactive: 1.11.
In the case of UGCUCUCAAGCUUCAUUCUTT against Rarb, the z-score is reported as inactive: 0.326.
In the case of CCGUCUUCUGCUGUGGAACTT against Ctrc, the z-score is reported as active: 2.6.
In the case of CCUCGAGAGACUCAUACUGTT against Nlrc4, the z-score is reported as inactive: -0.131.
In the case of GUUACACAGGAGUGUGUAATT against Rnase2a, the z-score is reported as inactive: 0.573.
In the case of CCUAAUGAAUGGCUAAAUATT against Sh2b2, the z-score is reported as inactive: 0.655.
For GCACCUAAGAUCACAGCCUTT against Sh3gl1, the z-score was inactive: -1.7.
With GGAUGAGUUCUUUAUGGAGTT against Cdh15 the z-score was inactive: 0.734.
With GGAGCUGAAGACCACAAAGTT against Tbata the z-score was inactive: -1.29.
For GGCAGCACCUAAACAAAAGTT against Rpl24, the z-score was inactive: -1.19.
With GGAAAAAAAGGUAGCUGGATT against Tspyl4 the z-score was active: 2.82.
With “GGUAUUGUCUCUAGGAGACTT against 4932414J04Rik” the z-score was inactive: 1.91.
In the case of GGUAUCUGUGCAAGGGCAATT against Defb5, the z-score is reported as active: 2.07.
In the case of GGUGCUACCUCUAGAUAUUTT against Utp3, the z-score is reported as inactive: 1.96.
With GCAUGAAUUGUGGAAGAGATT against Csnk1a1 the z-score was active: 2.71.
For GCCAGGUGUGGUGACUCAUTT against Tprkb, the z-score was inactive: 0.584.
With GUGAAGAGGAGCAGGACUUTT against Klrc3 the z-score was inactive: 0.261.
In the case of GGGAUCCUUAUUUCAUACUTT against Olfr868, the z-score is reported as inactive: 1.16.
With CCCGUCCCAUCCAUUAUUUTT against Zfp787 the z-score was inactive: -1.19.
For CCUAAGGUUGUCUGUAAAUTT against Ndufs3, the z-score was inactive: -0.136.
For GGUUCUGACUUGAGAAAACTT against Clba1, the z-score was inactive: 1.41.
With GCACCUAGUAUUGAAAGUCTT against Ccna2 the z-score was inactive: 0.229.
With CGCGAUAACGAAGAACAAUTT against Tmod3 the z-score was inactive: 1.78.
